The supplement of paper PMC12819154, “High-throughput peptide-centric local stability assay extends protein–ligand identification to membrane proteins, tissues and bacteria” (Nature Structural & Molecular Biology, 2025)
This is one part of the list. Most values lie at the level of the controls, where differences are scatter.

Protein sequences, listed by entry. Tags and fused reporters are not part of them. Lines headed by an entry give the natural chain unless they say otherwise; changes in a name come on top.
UniProt P18760, whole entry: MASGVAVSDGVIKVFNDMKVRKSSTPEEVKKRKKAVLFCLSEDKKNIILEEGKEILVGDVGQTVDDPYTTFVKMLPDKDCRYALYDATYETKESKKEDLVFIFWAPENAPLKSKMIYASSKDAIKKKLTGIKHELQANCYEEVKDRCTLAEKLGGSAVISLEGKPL
UniProt P16406: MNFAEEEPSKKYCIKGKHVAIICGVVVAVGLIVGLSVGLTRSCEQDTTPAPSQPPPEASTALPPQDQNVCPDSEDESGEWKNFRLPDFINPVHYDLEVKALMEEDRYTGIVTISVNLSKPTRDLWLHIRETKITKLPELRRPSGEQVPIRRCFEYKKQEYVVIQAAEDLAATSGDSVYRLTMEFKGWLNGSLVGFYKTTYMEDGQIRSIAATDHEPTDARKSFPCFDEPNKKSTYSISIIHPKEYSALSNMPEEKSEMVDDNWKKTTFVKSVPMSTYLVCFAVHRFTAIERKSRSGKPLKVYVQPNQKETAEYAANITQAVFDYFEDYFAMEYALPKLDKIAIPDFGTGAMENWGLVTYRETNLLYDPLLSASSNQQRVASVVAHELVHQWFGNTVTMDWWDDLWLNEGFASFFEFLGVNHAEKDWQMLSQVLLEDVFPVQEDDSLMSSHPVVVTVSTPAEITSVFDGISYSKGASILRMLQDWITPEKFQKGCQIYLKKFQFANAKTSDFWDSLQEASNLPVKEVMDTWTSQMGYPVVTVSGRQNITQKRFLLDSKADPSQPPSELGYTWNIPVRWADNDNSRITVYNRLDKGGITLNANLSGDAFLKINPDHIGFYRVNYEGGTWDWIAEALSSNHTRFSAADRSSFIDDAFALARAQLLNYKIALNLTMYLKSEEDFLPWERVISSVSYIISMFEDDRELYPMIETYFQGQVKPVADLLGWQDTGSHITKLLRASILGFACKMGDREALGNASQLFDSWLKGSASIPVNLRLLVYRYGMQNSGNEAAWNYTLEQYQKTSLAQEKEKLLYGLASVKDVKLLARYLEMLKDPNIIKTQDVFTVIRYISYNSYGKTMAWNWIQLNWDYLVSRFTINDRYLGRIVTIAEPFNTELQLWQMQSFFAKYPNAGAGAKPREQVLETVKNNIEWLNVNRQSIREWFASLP
UniProt P18828: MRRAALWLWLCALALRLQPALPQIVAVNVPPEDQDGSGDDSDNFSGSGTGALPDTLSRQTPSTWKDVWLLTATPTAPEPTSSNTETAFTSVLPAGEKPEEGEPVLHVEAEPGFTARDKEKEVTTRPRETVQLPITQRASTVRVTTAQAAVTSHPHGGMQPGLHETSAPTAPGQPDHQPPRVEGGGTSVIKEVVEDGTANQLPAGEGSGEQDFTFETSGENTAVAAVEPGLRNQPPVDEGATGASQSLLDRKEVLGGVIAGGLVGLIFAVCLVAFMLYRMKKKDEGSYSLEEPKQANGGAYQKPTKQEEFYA
UniProt P16254: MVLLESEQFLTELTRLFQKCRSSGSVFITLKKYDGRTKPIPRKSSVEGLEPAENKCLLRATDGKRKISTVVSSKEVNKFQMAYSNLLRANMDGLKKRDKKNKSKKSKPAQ
UniProt P09103: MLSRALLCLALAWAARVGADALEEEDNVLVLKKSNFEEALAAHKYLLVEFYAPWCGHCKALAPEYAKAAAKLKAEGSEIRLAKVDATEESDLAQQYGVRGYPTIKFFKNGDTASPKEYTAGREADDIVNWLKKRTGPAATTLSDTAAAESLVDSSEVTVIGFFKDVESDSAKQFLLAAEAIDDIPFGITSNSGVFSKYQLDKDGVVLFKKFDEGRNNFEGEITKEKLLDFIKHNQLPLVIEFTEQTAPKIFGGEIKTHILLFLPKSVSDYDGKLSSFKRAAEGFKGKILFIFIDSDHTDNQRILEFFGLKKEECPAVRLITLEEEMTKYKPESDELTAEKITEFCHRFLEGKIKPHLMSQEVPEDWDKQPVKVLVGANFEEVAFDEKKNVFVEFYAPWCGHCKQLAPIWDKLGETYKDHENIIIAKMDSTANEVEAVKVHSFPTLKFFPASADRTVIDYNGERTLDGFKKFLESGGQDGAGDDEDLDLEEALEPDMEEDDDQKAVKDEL
UniProt P19426, whole entry: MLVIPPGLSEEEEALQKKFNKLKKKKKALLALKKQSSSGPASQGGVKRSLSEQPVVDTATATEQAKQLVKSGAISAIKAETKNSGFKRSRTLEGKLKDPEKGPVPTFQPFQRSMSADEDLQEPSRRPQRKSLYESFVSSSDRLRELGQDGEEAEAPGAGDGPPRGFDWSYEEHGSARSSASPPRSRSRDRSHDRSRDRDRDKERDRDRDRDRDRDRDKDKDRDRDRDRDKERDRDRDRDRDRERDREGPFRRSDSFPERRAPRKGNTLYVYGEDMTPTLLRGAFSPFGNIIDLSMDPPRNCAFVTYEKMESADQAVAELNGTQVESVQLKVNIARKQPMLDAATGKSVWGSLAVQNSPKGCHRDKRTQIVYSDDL
UniProt P07310: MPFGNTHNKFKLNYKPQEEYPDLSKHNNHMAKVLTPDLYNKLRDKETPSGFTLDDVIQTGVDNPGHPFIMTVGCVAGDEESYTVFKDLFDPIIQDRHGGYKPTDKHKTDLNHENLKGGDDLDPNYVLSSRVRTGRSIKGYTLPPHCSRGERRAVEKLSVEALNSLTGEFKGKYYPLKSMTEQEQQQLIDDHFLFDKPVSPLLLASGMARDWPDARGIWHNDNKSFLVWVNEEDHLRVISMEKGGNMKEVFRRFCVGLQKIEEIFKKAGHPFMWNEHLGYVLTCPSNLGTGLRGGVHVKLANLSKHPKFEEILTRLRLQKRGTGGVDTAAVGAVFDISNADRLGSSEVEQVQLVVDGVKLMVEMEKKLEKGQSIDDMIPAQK
UniProt P15532, whole entry: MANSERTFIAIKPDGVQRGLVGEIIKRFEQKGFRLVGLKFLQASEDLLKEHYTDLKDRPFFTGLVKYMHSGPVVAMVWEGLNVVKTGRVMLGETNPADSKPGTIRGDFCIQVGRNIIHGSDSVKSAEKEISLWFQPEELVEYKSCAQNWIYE
UniProt P01872: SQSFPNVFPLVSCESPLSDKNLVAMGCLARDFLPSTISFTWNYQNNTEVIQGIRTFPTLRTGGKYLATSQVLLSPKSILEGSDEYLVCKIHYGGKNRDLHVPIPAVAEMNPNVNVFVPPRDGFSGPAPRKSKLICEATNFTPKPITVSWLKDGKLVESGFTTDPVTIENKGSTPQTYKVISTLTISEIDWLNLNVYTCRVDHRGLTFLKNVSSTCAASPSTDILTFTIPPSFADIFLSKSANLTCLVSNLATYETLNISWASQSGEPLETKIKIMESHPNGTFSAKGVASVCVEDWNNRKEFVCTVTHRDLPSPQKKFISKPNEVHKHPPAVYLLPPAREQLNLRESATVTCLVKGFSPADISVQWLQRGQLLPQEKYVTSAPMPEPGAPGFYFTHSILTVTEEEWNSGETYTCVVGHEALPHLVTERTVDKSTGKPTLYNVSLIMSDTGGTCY
UniProt P13597, whole entry: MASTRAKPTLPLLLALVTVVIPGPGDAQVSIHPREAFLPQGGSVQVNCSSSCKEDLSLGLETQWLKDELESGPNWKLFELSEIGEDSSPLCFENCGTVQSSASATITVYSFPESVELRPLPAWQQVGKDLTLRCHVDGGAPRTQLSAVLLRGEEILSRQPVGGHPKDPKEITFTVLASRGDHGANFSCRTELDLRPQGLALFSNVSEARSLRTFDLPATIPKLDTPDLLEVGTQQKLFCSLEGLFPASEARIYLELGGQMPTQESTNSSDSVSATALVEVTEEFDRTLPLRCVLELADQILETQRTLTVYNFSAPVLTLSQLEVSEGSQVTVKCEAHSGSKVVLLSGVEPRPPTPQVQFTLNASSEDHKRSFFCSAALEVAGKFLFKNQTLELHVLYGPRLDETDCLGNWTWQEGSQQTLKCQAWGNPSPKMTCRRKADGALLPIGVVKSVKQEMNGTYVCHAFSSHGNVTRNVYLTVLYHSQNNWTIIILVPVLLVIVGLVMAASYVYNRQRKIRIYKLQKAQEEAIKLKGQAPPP
UniProt P20029: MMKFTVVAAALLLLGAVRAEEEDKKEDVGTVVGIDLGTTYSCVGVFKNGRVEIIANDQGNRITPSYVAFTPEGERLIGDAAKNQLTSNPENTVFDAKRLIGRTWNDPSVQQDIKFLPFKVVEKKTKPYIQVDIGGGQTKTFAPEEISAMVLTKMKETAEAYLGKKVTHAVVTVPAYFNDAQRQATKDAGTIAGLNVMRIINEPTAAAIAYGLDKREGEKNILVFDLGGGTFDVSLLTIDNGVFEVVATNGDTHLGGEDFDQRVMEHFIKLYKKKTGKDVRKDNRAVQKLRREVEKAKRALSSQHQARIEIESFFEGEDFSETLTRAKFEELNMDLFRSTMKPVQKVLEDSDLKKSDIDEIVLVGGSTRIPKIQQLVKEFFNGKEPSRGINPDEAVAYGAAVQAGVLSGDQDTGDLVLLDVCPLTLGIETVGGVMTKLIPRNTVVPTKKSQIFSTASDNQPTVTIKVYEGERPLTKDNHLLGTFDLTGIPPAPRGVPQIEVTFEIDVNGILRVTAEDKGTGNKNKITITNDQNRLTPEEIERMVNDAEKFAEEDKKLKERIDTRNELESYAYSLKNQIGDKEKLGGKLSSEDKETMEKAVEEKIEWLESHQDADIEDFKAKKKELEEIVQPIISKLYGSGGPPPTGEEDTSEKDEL
UniProt P09813: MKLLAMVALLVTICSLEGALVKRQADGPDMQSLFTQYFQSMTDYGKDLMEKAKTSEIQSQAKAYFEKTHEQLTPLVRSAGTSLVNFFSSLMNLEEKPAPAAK
UniProt P22437, whole entry: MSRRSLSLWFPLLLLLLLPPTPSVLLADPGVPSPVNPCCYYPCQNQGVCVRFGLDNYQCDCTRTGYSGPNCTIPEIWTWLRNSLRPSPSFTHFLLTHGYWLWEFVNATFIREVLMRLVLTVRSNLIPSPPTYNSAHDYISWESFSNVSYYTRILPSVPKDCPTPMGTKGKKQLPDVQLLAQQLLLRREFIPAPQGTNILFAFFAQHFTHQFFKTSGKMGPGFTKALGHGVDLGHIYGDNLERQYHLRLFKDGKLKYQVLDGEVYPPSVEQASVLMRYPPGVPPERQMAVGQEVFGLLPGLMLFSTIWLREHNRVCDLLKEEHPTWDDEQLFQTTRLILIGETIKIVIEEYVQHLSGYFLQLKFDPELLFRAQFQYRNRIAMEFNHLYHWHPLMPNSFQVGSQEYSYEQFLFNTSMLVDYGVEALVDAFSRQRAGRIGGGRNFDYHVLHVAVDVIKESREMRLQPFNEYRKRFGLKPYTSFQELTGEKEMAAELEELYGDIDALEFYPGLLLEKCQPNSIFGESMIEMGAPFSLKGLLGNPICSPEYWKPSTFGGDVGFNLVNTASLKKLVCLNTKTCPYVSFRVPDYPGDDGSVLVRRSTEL
UniProt P0DOV2: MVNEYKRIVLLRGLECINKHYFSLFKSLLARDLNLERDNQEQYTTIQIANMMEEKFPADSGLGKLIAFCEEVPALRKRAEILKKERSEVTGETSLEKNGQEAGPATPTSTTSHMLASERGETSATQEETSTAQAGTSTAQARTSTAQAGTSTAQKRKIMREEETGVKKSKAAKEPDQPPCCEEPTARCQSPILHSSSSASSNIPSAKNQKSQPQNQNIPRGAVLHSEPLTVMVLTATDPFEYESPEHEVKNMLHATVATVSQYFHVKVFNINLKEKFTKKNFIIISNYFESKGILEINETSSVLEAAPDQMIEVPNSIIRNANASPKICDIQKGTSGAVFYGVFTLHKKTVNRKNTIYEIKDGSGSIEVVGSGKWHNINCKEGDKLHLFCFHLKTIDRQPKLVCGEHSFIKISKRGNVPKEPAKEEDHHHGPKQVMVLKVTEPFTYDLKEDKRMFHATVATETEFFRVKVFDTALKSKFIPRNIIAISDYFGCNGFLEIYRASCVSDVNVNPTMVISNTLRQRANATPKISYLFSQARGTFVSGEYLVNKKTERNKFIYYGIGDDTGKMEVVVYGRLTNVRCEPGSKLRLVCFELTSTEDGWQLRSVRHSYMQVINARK
UniProt P26187: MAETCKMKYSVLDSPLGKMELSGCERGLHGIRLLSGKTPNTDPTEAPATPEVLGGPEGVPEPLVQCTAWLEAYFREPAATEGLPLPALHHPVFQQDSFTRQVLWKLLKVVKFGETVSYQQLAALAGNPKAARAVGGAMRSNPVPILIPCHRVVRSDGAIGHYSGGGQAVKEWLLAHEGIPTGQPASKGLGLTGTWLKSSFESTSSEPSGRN
UniProt P22599: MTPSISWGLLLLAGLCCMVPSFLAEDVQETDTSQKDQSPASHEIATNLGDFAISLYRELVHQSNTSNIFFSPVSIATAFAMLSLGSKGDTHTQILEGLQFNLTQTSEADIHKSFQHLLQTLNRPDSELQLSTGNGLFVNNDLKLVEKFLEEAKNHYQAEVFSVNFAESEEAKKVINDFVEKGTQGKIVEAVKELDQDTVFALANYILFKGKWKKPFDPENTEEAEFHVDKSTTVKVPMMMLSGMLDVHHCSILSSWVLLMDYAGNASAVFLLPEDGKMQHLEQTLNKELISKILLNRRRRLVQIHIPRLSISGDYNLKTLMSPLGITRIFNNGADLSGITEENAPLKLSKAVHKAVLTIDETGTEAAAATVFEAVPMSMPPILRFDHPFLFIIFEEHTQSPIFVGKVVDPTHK

What follows are targets tested with CN[C@@H]1C[C@H]2O[C@@](C)([C@@H]1OC)n1c3ccccc3c3c4c(c5c6ccccc6n2c5c31)C(=O)NC4 [staurosporine] (assay: log2 fold change of pooled soluble protein (PISA), ligand vs vehicle (log2 ratio); higher = more thermally stabilized). Settings: ligand concentration: 20 uM; assay format: PISA pool 52.9/55.5/58.6 C.

| Target | log2 fold change of pooled soluble protein |
| --- | --- |
| UniProt P23116 | -0.036 |
| UniProt P10833 | 0.0148 |
| UniProt P19157 | -0.112 |
| UniProt P10404 | -0.204 |
| UniProt P18760 | -0.133 |
| UniProt P16406 | 0.0209 |
| UniProt P24369 | -0.116 |
| P17879;Q61696 | -0.121 |
| UniProt P18828 | -0.152 |
| UniProt P16254 | 0.156 |
| UniProt P16858 | -0.0992 |
| UniProt P09103 | 0.015 |
| UniProt P19426 | 0.148 |
| UniProt P10922 | -0.0416 |
| UniProt P07310 | -0.129 |
| UniProt P12970 | -0.0755 |
| UniProt P15532 | 0.182 |
| UniProt P14429 | -0.0582 |
| UniProt P01872 | -0.179 |

A stretch of the results above:

| Target | log2 fold change of pooled soluble protein |
| --- | --- |
| UniProt P12970 | -0.0755 |
| UniProt P15532 | 0.182 |

Next records.

| Target | log2 fold change of pooled soluble protein |
| --- | --- |
| UniProt P13597 | -0.00163 |
| UniProt P10852 | 0.00636 |
| UniProt P27773 | 0.00123 |
| UniProt P20029 | -0.0067 |
| UniProt P19096 | -0.0745 |
| UniProt P09813 | -0.031 |
| UniProt P22437 | -0.101 |
| UniProt P07724 | -0.00012 |
| UniProt P0DOV2 | 0.0169 |
| UniProt P01942 | -0.00104 |
| UniProt P11930 | 0.186 |
| UniProt P14824 | -0.0642 |
| UniProt P03958 | 0.068 |
| UniProt P26187 | -0.137 |
| UniProt P22599 | 0.0282 |
| UniProt P24638 | 0.0626 |
| UniProt P19973 | 0.151 |
| UniProt P26638 | -0.111 |
